{"source": "PubChem BioAssay AID1159578 (Peter MacCallum Cancer Centre, 2015)", "assay": "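Genome-wide hunt for genes controlling movement of lymphatic endothelial cells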 (primary screen)", "cell system": "human lymphatic endothelial cells", "knock-down reagent": "siRNA pool against human genes, 40 nM", "timing": "48 h after transfection", "measurement": "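High-content imaging of dye-stained cells in a scratch assay measures filled wound area and nuclei per well; duplicate means given as ratio to mock and robust z-score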", "scale": "migration robust z-score: higher = faster migration into the scratch; nuclei per well: higher = more cells in the well", "hit rule": "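Pools averaging fewer than 3300 nuclei are never called; remaining pools count as changed when migration robust z lies outside -2 to 2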", "meaning of the calls": "active = migration changed; inactive = no migration change, or too few cells", "note": "Shown is a random part of about 18,000 reagents. About 1,030 of all reagents (5.7%) were called active. 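Inactive calls also include pools with fewer than 3300 nuclei, whose migration was not assessed.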 Raw values are not corrected between plates. A number with no mark means an inactive call. Further read-outs or replicates are left out here. No sequences are given here."}
{"target gene": "KRT1 (GeneID 3848)", "migration robust z-score": -0.02, "nuclei per well, duplicate mean": 6408}
{"target gene": "KIF3A (GeneID 11127)", "migration robust z-score": -0.46, "nuclei per well, duplicate mean": 4062}
{"target gene": "CALCOCO1 (GeneID 57658)", "migration robust z-score": "-2.43 (active)", "nuclei per well, duplicate mean": 4990}
{"target gene": "CEACAM5 (GeneID 1048)", "migration robust z-score": "2.7 (active)", "nuclei per well, duplicate mean": 5945}
{"target gene": "GPR61 (GeneID 83873)", "migration robust z-score": -0.78, "nuclei per well, duplicate mean": 5258}
{"target gene": "GLYAT (GeneID 10249)", "migration robust z-score": -0.08, "nuclei per well, duplicate mean": 5856}
{"target gene": "RXRA (GeneID 6256)", "migration robust z-score": -0.28, "nuclei per well, duplicate mean": 3600}
{"target gene": "PSMD14 (GeneID 10213)", "migration robust z-score": -0.57, "nuclei per well, duplicate mean": 5213}
{"target gene": "PACRGL (GeneID 133015)", "migration robust z-score": -1.96, "nuclei per well, duplicate mean": 4003}
{"target gene": "BCAP31 (GeneID 10134)", "migration robust z-score": -0.36, "nuclei per well, duplicate mean": 6476}
{"target gene": "RNF148 (GeneID 378925)", "migration robust z-score": 0.7, "nuclei per well, duplicate mean": 6284}
{"target gene": "CATIP (GeneID 375307)", "migration robust z-score": -1.6, "nuclei per well, duplicate mean": 5102}
{"target gene": "CLEC5A (GeneID 23601)", "migration robust z-score": 0.34, "nuclei per well, duplicate mean": 6048}
{"target gene": "DDX5 (GeneID 1655)", "migration robust z-score": -0.39, "nuclei per well, duplicate mean": 4815}
{"target gene": "ZNF826P (GeneID 664701)", "migration robust z-score": 1.92, "nuclei per well, duplicate mean": 6550}
{"target gene": "ESD (GeneID 2098)", "migration robust z-score": -0.64, "nuclei per well, duplicate mean": 6821}
{"target gene": "ZNF23 (GeneID 7571)", "migration robust z-score": -0.98, "nuclei per well, duplicate mean": 3911}
{"target gene": "ABI1 (GeneID 10006)", "migration robust z-score": -1.11, "nuclei per well, duplicate mean": 5514}
{"target gene": "IPO13 (GeneID 9670)", "migration robust z-score": 0.5, "nuclei per well, duplicate mean": 5968}
{"target gene": "CUTA (GeneID 51596)", "migration robust z-score": 0.46, "nuclei per well, duplicate mean": 5402}
{"target gene": "ARHGEF17 (GeneID 9828)", "migration robust z-score": 0.21, "nuclei per well, duplicate mean": 5787}

Already shown: entries from further up.
{"target gene": "ESD (GeneID 2098)", "migration robust z-score": -0.64, "nuclei per well, duplicate mean": 6821}
{"target gene": "ZNF23 (GeneID 7571)", "migration robust z-score": -0.98, "nuclei per well, duplicate mean": 3911}
{"target gene": "ABI1 (GeneID 10006)", "migration robust z-score": -1.11, "nuclei per well, duplicate mean": 5514}
